# Source: patent publication US20260014246A1, “TREATMENT METHODS FOR VIRAL INFECTIONS” (priority 2022, published 2026)
# At least one structure is not confirmed: it was looked up by name or label, or the drawing left a doubt.
# System: SARS-COV-2 Alpha
# Experiment: Remdizivir treatment of mice challenged with SARS-COV-2 Alpha
# Format: in vivo, female hACE2 Knock-in mice
# Conditions: 25 mg/kg bodyweight, single dose; 54000 pfu intranasal
compound,measurement,value
CCC(CC)COC(=O)[C@H](C)N[P@](=O)(OC[C@H]1O[C@@](C#N)(c2ccc3c(N)ncnn23)[C@H](O)[C@@H]1O)Oc1ccccc1 [remdesivir],shift in the Kaplan-Meier curve,small right shift
